# The supplement of paper PMC12009310
# Counter-ions that a name gives are not always drawn. ± gives the standard deviation of the averaged measurements. The list shows a part of the results. Baselines shift from plate to plate; read single values as rough.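 The cells are a mouse kidney inner medullary collecting duct line, silenced either for the ciliary gene Rpgrip1l or with a non-targeting control siRNA.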
# Experiments:
# mIMCD3 [1] = assay: robust z score of cell number vs plate controls; higher = more cells (less cytotoxic); settings: 10 µM, 48 h
# mIMCD3 [2] = assay: robust z score of cilia incidence (% cells with single cilium) vs plate controls; higher = more ciliated cells; settings: 10 µM; 48 h; siRNA: siScr
# mIMCD3 [3] = assay: robust z score of cilia incidence (% cells with single cilium) vs plate controls; higher = more ciliated cells (rescue of cilia loss); settings: 10 µM; 48 h; siRNA: siRpgrip1l
Compound,robust z score of cell number (mIMCD3 [1]; siRNA: siRpgrip1l),robust z score of cell number (mIMCD3 [1]; siRNA: siScr),robust z score of cilia incidence (mIMCD3 [2]),robust z score of cilia incidence (mIMCD3 [3])
N#Cc1ccccc1OCC(O)CNCCNC(=O)Nc1ccccc1 (centres undefined),-17.6 ± 18,-2.05 ± 5,1.19 ± 0.29,-7.14 ± 2
O=c1c(-c2ccc(O)cc2)coc2cc(O)ccc12 [Daidzein],-24.1 ± 19,-4.84 ± 2.6,-3.32 ± 2.5,-7.76 ± 1.3
C[C@@H](CN1CCC(Cc2ccccc2)CC1)[C@@H](O)c1ccc(O)cc1 [Ro 25-6981 maleate],-126 ± 130,-35.9 ± 3.2,-42.3 ± 11,-526 ± 310
O=S(=O)(c1cccc2c(Cl)cccc12)N1CCCNCC1 [ML 9 hydrochloride],-124 ± 100,-83 ± 45,-38.4 ± 1.9,-47.2 ± 24
CCCCNC(=O)[C@@H]1Cc2ccccc2N1C(=O)[C@@H](N)CC [Butabindide oxalate],-38.1 ± 30,-9.11 ± 4.8,-15.3 ± 22,-24.9 ± 24
CCN(CC)CCOc1ccc(Cc2ccccc2)cc1 [DPPE fumarate],-47.3 ± 16,-35.2 ± 6,-45.8 ± 6.2,-38 ± 0.45
Cc1oncc1C(=O)Nc1ccc(C(F)(F)F)cc1 [Leflunomide],-19.8 ± 23,-8.42 ± 0.6,2.56 ± 2.7,-12 ± 1.4
O=[N+]([O-])c1cc2nc(O)c(O)nc2cc1[N+](=O)[O-],0.0604 ± 3.2,1.3 ± 2.3,0.373 ± 0.91,-8.97 ± 8.1
CCCCC1CCC(c2nc(-c3ccncc3)no2)CC1 (centres undefined),-16.4 ± 17,-6.85 ± 2.3,-7.82 ± 6.8,-9.59 ± 5
COc1ccc([C@@H]2CNC(=O)C2)cc1OC1CCCC1 [(R)-(-)-Rolipram],-37.1 ± 33,1.68 ± 1.4,-0.532 ± 3.3,-7.07 ± 2
COc1cc2nc(N3CCN(C(=O)c4ccco4)CC3)nc(N)c2cc1OC [Prazosin hydrochloride],-57.7 ± 37,-83.8 ± 76,-4.84 ± 0.12,-23.3 ± 2.3

# A second format for part of the listing above.
Compound	robust z score of cell number (mIMCD3 [1]; siRNA: siRpgrip1l)	robust z score of cell number (mIMCD3 [1]; siRNA: siScr)	robust z score of cilia incidence (mIMCD3 [2])	robust z score of cilia incidence (mIMCD3 [3])
C[C@@H](CN1CCC(Cc2ccccc2)CC1)[C@@H](O)c1ccc(O)cc1 [Ro 25-6981 maleate]	-126 ± 130	-35.9 ± 3.2	-42.3 ± 11	-526 ± 310
O=S(=O)(c1cccc2c(Cl)cccc12)N1CCCNCC1 [ML 9 hydrochloride]	-124 ± 100	-83 ± 45	-38.4 ± 1.9	-47.2 ± 24
